# Literature values in patent US9752110B2, “Method and compositions of preserving wine” (YSDR, LLC, priority 2008, dated 2017).
# At least one structure is not confirmed: it was looked up by name or label, or the drawing left a doubt. Some entries repeat one wording, which the source may state once for all of them.
# Tested on: eNOS
# Conditions: cited from earlier work
compound,measurement,value
COc1cc(-c2[o+]c3cc(O)cc(O)c3cc2O)cc(OC)c1O [malvidin],eNOS expression or eNOS promoter activity,did not change
